HELM strings list residues between dots; [ac] is acetyl, [am] amide, other brackets name non-standard units.
Assay: solid-phase peptide synthesis
Details: whole synthesis

| Substance | crude mass (scale 0.50 mmol) [g] | isolated mass (scale 0.50 mmol) [mg] | crude mass (scale 0.54 mmol) [g] |
| --- | --- | --- | --- |
| Threonyl-asparaginyl-glutaryl-alanyl-glutamyl-asparaginyl-tryptophyl-alanyl-aspartyl-asparaginyl-glutamyl-prolyl-asparaginyl-asparagine amide (Sequence ID No. 13) | 0.44 | 33 |  |
| Acetyl-threonyl-asparaginyl-glutamyl-alanyl-glutamyl-asparaginyl-tryptophyl-alanyl-aspartyl-asparaginyl-glutamyl-proline amide (Sequence ID No. 11) | 0.774 | 6 |  |
| PEPTIDE1{A.E.N.W.A.D.N.E.P.N.N.[am]}$$$$V2.0 |  |  | 0.55 |

Source: patent publication US6111065A (Centocor, Inc., priority 1994, dated 2000)
